Laboratory results reported in PMC5974425.
Results are given in words; binding and its absence hold for the method and conditions named. Binding seen in cells or lysates may run through a third protein. Some results given as binding are weak or reduced against the parent protein; the word gives no strength.

Amino acid sequences for entries named in this document (tags omitted).
UniProt Q12923: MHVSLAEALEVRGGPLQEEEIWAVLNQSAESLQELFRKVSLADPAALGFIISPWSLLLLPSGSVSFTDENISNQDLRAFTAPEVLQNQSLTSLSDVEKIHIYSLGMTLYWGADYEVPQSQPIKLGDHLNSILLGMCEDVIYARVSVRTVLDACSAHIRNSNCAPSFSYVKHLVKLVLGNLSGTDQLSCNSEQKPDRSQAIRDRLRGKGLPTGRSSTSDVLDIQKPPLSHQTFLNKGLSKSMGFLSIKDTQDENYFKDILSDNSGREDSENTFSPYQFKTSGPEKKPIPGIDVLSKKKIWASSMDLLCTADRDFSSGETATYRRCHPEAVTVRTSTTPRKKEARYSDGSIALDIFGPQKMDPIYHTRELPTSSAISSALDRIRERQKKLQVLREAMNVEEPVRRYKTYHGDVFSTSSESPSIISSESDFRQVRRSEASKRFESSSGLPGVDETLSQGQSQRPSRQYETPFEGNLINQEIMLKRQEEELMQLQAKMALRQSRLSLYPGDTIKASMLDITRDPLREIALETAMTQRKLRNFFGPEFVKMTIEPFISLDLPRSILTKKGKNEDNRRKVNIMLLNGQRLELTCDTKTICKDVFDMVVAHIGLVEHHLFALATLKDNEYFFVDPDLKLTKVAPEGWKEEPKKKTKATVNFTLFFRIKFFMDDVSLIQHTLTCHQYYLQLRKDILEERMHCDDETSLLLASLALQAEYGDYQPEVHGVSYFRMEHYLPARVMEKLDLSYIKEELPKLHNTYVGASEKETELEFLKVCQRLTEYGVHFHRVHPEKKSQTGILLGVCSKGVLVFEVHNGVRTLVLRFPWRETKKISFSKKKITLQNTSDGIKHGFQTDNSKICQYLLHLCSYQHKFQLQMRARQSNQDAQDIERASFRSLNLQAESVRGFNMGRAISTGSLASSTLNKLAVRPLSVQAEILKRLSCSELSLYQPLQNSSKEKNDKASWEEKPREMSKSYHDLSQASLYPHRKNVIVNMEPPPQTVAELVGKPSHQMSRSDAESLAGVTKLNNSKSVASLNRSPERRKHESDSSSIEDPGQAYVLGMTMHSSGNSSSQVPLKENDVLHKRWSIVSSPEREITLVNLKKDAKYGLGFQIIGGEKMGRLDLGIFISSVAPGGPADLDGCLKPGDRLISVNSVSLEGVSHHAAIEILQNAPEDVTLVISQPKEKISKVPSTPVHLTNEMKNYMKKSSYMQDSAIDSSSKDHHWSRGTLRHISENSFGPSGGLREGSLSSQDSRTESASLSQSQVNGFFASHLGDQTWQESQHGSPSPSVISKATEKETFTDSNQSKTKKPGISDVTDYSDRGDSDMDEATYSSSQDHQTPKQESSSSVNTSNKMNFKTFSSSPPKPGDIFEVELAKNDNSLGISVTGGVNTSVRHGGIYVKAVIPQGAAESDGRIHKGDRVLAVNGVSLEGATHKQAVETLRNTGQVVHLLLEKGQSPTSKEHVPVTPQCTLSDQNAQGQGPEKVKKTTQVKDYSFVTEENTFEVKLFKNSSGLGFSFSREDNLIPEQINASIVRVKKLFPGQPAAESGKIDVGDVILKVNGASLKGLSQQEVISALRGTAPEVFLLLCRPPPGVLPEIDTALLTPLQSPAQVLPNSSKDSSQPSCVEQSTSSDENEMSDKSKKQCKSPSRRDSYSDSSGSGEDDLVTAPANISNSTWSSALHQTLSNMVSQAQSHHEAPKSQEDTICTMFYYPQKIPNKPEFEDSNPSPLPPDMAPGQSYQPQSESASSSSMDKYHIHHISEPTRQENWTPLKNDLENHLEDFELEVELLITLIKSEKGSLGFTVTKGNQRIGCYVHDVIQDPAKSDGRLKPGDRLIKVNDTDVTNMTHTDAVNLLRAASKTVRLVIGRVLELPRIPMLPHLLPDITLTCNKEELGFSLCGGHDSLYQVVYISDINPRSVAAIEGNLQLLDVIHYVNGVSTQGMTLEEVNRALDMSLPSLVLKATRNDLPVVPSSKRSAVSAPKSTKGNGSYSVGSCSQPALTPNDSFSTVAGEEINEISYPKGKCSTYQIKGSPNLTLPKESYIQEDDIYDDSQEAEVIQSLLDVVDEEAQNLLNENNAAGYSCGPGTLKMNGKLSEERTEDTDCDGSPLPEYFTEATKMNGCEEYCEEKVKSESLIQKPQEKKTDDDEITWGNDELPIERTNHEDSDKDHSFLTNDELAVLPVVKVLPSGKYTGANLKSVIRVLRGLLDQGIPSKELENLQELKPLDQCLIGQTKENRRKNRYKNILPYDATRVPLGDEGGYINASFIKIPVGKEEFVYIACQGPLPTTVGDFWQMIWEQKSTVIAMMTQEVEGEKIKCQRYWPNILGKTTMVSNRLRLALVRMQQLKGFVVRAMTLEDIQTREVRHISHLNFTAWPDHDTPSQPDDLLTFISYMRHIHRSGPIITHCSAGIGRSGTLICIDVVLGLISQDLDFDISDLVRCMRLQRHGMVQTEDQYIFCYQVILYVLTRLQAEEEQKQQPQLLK
UniProt Q16513: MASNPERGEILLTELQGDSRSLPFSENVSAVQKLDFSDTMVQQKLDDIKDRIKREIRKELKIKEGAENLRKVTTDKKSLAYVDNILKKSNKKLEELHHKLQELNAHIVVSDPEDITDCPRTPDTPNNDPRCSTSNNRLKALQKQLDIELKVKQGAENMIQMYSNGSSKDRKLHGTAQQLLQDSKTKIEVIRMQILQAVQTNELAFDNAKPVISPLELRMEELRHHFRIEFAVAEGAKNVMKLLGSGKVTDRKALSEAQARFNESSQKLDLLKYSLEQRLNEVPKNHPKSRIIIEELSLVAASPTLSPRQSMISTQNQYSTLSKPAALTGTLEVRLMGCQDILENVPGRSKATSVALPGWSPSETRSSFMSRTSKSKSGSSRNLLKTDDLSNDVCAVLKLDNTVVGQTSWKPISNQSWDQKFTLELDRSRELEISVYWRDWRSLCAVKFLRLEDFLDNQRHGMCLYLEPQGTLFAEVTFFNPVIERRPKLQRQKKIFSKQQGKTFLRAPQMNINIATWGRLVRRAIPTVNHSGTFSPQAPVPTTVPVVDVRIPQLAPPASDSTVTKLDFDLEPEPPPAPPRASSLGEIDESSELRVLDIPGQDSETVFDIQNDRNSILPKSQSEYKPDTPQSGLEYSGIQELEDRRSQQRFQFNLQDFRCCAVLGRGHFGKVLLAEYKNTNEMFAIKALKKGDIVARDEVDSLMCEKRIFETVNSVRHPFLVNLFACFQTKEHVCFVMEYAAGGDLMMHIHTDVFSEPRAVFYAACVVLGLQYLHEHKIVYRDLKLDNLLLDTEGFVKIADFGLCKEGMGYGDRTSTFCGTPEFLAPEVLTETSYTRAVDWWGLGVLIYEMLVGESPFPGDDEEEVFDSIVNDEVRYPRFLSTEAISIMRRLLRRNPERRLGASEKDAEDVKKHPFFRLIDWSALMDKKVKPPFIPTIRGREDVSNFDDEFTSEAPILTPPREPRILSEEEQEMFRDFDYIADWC

Target: GFP-PTPL1 wt (UniProt Q12923)
Assay: co-IP; transfected HEK293T cells lysed in 1% Triton X-100, 50 mM Tris-HCl pH 7.5, 150 mM NaCl, 5 mM MgCl2; cleared lysates on agarose beads coupled to GFP binding protein, 1 h at 4°C; the GFP- or YFP-tagged protein is the bait; Western blot

Substance: Flag-PKN2 (from UniProt Q16513 1-984)
- binding: binds
